# PubChem BioAssay AID1671195 | Yale University, 2021
# Assay: 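Genes whose knockdown alters LDL uptake in liver cancer cells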 (primary screen)
# Cell system: human Huh7 hepatoma cells
# Reagent: siRNA pool against human genes, 18 nM
# Time to read-out: about 2 to 2.5 days of knockdown, then 8 h LDL uptake
# Challenge: DiI-labelled LDL at 30 µg/ml for 8 h, in lipoprotein-deficient serum medium
# Read-out: 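Fluorescent LDL signal imaged in cells, scaled to the plate median, robust z-score for each replicate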
# Direction: robust z-score: higher = more LDL uptake after knockdown
# Hit rule: 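a gene counts as active if at least two replicate z-scores exceed ±2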
# This is a random part of about 22,000 reagents tested. About 1,510 of them (6.9%) count as active. 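Active includes knockdowns raising or lowering LDL uptake; positive z-scores mean more uptake, negative mean less.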 The numbers tell different reagents against one gene apart.
Gene,reagent,"robust z-score, replicate 1","robust z-score, replicate 2","robust z-score, replicate 3",call
LOC391553 (retired record),1,-0.817,-1.09,-1.28,inactive
SPHK2 (sphingosine kinase 2),1,0.762,0.436,0.431,inactive
LOC441998 (retired record),1,1.08,0.82,1.05,inactive
CCM2L (CCM2 like scaffold protein),1,0.777,1.9,0.321,inactive
ATP6V1F (ATPase H+ transporting V1 subunit F),1,-1.19,-0.802,-1.19,inactive
TRIM37 (tripartite motif containing 37),1,0.243,1.17,2.44,inactive
OBI1 (ORC ubiquitin ligase 1),1,-0.77,-0.518,-0.189,inactive
MAGED1 (MAGE family member D1),1,1.11,1.77,0.402,inactive
"RAB26 (RAB26, member RAS oncogene family)",1,-1.89,-1.83,-1.41,inactive
PRPF38A (pre-mRNA processing factor 38A),1,0.241,-0.458,0.653,inactive
NPEPPS (aminopeptidase puromycin sensitive),1,-1.65,-0.907,-1.29,inactive
XKRX (XK related X-linked),1,1.3,1.14,0.534,inactive
ZNF124 (zinc finger protein 124),1,0.0527,-0.402,-0.00369,inactive
PPDPF,1,-1.94,-1.57,-1.93,inactive
KIR3DL3,1,-0.599,-0.4,-0.48,inactive
NEK9 (NIMA related kinase 9),1,1.01,0.56,0.986,inactive
EIF4ENIF1,1,-0.818,-0.364,-1.68,inactive
OR5T2 (olfactory receptor family 5 subfamily T member 2),1,1.82,2,1.56,inactive
CLEC20A (C-type lectin domain containing 20A),1,0.714,0.421,0.509,inactive
C8orf34 (chromosome 8 open reading frame 34),1,-0.42,0.311,0.467,inactive
LIPT2 (lipoyl(octanoyl) transferase 2),1,-0.541,-0.259,-0.265,inactive
"H3-4 (H3.4 histone, cluster member)",1,0.327,-0.291,-0.0773,inactive
NODAL (nodal growth differentiation factor),1,-1.41,-1.72,-0.725,inactive
SUDS3P1,1,-1.07,-0.513,-0.789,inactive
SLC25A24,1,1.03,1.21,1.35,inactive
GPR152 (G protein-coupled receptor 152),1,0.142,-0.245,0.144,inactive
NLRP11 (NLR family pyrin domain containing 11),1,1.98,1.27,2.28,active
LOC441732 (retired record),1,0.0874,0.0657,0.847,inactive
SIPA1L3 (signal induced proliferation associated 1 like 3),1,-0.0938,0.476,0.427,inactive
C2 (complement C2),1,-0.149,-0.778,0.0138,inactive

Entries above whose gene name begins with P or p:
Gene,reagent,"robust z-score, replicate 1","robust z-score, replicate 2","robust z-score, replicate 3",call
PRPF38A (pre-mRNA processing factor 38A),1,0.241,-0.458,0.653,inactive
PPDPF,1,-1.94,-1.57,-1.93,inactive

The list goes on:
Gene,reagent,"robust z-score, replicate 1","robust z-score, replicate 2","robust z-score, replicate 3",call
POLR2DP1 (POLR2D pseudogene 1),1,-0.904,-1.26,-1.54,inactive
LOC387826 (retired record),1,0.17,0.0112,0.414,inactive
SYNGR3 (synaptogyrin 3),1,-1.52,-1.01,-1.24,inactive
TTC17 (tetratricopeptide repeat domain 17),1,0.327,-0.946,0.595,inactive
ARF4P3 (ARF GTPase 4 pseudogene 3),1,-1.45,-0.963,-1.05,inactive
FLJ31132 (retired record),1,0.736,-0.275,-0.676,inactive
LRBA (LPS responsive beige-like anchor protein),1,3.38,3.58,3.14,active
ZSCAN12 (zinc finger and SCAN domain containing 12),1,-0.252,0.046,-0.214,inactive
OGFRL1 (opioid growth factor receptor like 1),1,-0.219,-0.588,-0.497,inactive
GOT1 (glutamic-oxaloacetic transaminase 1),1,1.43,1.83,1.25,inactive
MPZL1 (myelin protein zero like 1),1,1.98,0.822,1.79,inactive
BOLL (boule RNA binding protein),1,-0.604,-0.868,-0.24,inactive
"PFKFB4 (6-phosphofructo-2-kinase/fructose-2,6-biphosphatase 4)",1,-0.868,-0.597,-0.731,inactive
LOC441851 (retired record),1,-0.428,-0.0775,-0.242,inactive
TCERG1L (transcription elongation regulator 1 like),1,0.757,0.545,0.312,inactive
LOC441340 (retired record),1,0.194,-0.287,-0.427,inactive
LOC399900,1,0.243,-1.23,-1.01,inactive
TIMP2 (TIMP metallopeptidase inhibitor 2),1,-1.82,-1.33,0.95,inactive
DNAJC25 (DnaJ heat shock protein family (Hsp40) member C25),1,-2.28,-2.2,-1.94,active
OR9A4 (olfactory receptor family 9 subfamily A member 4),1,1.74,-0.322,0.543,inactive
SIX6 (SIX homeobox 6),1,0.00374,0.0109,-0.347,inactive
"SPTB (spectrin beta, erythrocytic)",1,-0.126,-1.55,0.579,inactive
ZNF407-AS1 (ZNF407 antisense RNA 1),1,1.58,1.49,1.36,inactive
LOC613266,1,-0.441,-0.446,-0.0137,inactive
LOC441969 (retired record),1,0.506,0.0777,0.0698,inactive
IL4 (interleukin 4),1,-2.2,-2.06,-2.01,active
LRRC2 (leucine rich repeat containing 2),1,-0.383,-0.635,0.343,inactive
TOX4 (TOX high mobility group box family member 4),1,-0.515,1.24,1.25,inactive
LINC01785 (long independently transcribed non-coding RNA 1785),1,-0.000314,-0.0496,0.0394,inactive
LOC729417,1,0.748,0.638,0.75,inactive
AKAP6 (A-kinase anchoring protein 6),1,-0.587,0.148,-0.287,inactive
"GIMAP4 (GTPase, IMAP family member 4)",1,-1.84,-1.16,-0.0951,inactive
TUBA1A (tubulin alpha 1a),1,-0.519,-0.208,-0.298,inactive
VASP (vasodilator stimulated phosphoprotein),1,-0.705,0.0369,-0.944,inactive
FIG4 (FIG4 phosphoinositide 5-phosphatase),1,3.97,3.5,1.54,active
ARHGAP15 (Rho GTPase activating protein 15),1,-0.591,-0.817,2.68,inactive
ZCCHC2 (zinc finger CCHC-type containing 2),1,0.346,-0.00894,-0.00849,inactive
ZCCHC2 (zinc finger CCHC-type containing 2),2,0.901,0.321,-1.91,inactive
